{"source": "paper PMC6032018", "about": "“Post-translational regulation of a Porphyromonas gingivalis regulator” (Journal of Oral Microbiology, 2018)", "assay_in_all_cases": "EMSA", "key": {"[1]": {"target": "acetylated RprY (Ac-CoA treated) (Porphyromonas gingivalis ATCC 33277) (UniProt B2RK10)", "settings": "reduced complex, EMSA: 50 mM Tris-HCl pH 8.0, 750 mM KCl, 2.5 mM EDTA, 0.5% Triton-X, 2.5% glycerol, 1 mM DTT (RprY dilution buffer), 20 ul, 30 min, room temperature, recombinant protein, protein details: His (pET22b), label: DIG, probe letters rebuilt from the primers and the genome"}, "[2]": {"target": "RprY (Porphyromonas gingivalis ATCC 33277) (UniProt B2RK10)", "settings": "EMSA: 50 mM Tris-HCl pH 8.0, 750 mM KCl, 2.5 mM EDTA, 0.5% Triton-X, 2.5% glycerol, 1 mM DTT (RprY dilution buffer), 20 ul, 30 min, room temperature, recombinant protein, protein details: His (pET22b), label: DIG, probe letters rebuilt from the primers and the genome"}, "[3]": {"target": "RprY treated with acetyl phosphate (phosphorylated) (Porphyromonas gingivalis ATCC 33277) (UniProt B2RK10)", "settings": "10 uM RprY, increasing AcP, increased complex formation; EMSA: 50 mM Tris-HCl pH 8.0, 750 mM KCl, 2.5 mM EDTA, 0.5% Triton-X, 2.5% glycerol, 1 mM DTT (RprY dilution buffer), 20 ul, 30 min, room temperature; recombinant protein; protein details: His (pET22b); label: DIG; probe letters rebuilt from the primers and the genome"}, "CobB": {"target": "CobB (UniProt B2RGM8)", "settings": "CobB without RprY, no shifted complex; EMSA: 50 mM Tris-HCl pH 8.0, 750 mM KCl, 2.5 mM EDTA, 0.5% Triton-X, 2.5% glycerol, 1 mM DTT (RprY dilution buffer), 20 ul, 30 min, room temperature; recombinant protein; residues 1-234; label: DIG; probe letters rebuilt from the primers and the genome"}}, "note": "For some of these results: A negative result means that nothing was seen under these conditions. For some of these results: The exact form of at least one protein or probe is not confirmed. For some of these results: Weaker means in comparison with the reference protein, sequence or condition of that experiment."}
{"sequence": "ACTCTGCACAGGATGGGAGTGCTCGTAATGGCTTCTAAAGTGCTGATTTGCTACCTCTTATAGTTGGCAAACAGTGTAAAAACTTTCTTTCGATAAAGACCTGCGGAATATGGGTGCAAAAGGTCGGAAAAAACTATGTGGAAATTTTTCCTCAAATGCCTCCATACTTATAGGTATATATAGGGGAAAAAGCTACTTTTGCGACACAAATTGGAATAATAATTCTGTGTC (double strand) [nqrA promoter]", "values": [{"measurement": "binding result", "setting": "[1]; 10 uM RprY, increasing lower Ac-CoA concentrations", "value": "binds more weakly"}, {"measurement": "binding result", "setting": "[1]; Ac-CoA, without CobB", "value": "binds more weakly"}, {"measurement": "binding result", "setting": "[2]; 5-15 uM RprY, concentration dependent, excess unlabelled promoter competed", "value": "binds"}, {"measurement": "binding result", "setting": "[2]; Ac-CoA with CobB and NAD+ (deacetylation), shifted complexes", "value": "binds"}, {"measurement": "binding result", "setting": "[2]; unacetylated RprY with CobB present, complex not prevented", "value": "binds"}, {"measurement": "binding result", "setting": "[3]", "value": "binds"}, {"measurement": "binding result", "setting": "CobB", "value": "no binding"}]}
